Results taken from PMC6821256.
Substitutions are numbered along the chain they refer to. Results are given in words; binding and its absence hold for the method and conditions named. For some assays here: Binding seen in cells or lysates may run through a third protein. Some binding calls cover weakened binding; strength is not graded here. Tags and fused reporters may be left off the sequences shown.

Experiments:
[1] = target: T1, Rec15 full-length (FL, 1-180; yeast two-hybrid construct) (Schizosaccharomyces pombe) (UniProt Q09094); test: two-hybrid; S. cerevisiae AH109, pGADT7 and pGBKT7 plasmids; growth on SD without leucine, tryptophan, histidine and adenine, 5 days at 30°C
T1 sequence: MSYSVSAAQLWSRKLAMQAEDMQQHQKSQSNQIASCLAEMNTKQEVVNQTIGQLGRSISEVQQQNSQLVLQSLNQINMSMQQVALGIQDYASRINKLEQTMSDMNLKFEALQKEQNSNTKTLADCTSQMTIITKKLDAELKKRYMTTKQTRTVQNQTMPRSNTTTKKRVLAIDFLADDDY

[2] = target: T2, Rec10 (yeast two-hybrid construct) (Schizosaccharomyces pombe) (UniProt Q09823); test: as above
T2 sequence: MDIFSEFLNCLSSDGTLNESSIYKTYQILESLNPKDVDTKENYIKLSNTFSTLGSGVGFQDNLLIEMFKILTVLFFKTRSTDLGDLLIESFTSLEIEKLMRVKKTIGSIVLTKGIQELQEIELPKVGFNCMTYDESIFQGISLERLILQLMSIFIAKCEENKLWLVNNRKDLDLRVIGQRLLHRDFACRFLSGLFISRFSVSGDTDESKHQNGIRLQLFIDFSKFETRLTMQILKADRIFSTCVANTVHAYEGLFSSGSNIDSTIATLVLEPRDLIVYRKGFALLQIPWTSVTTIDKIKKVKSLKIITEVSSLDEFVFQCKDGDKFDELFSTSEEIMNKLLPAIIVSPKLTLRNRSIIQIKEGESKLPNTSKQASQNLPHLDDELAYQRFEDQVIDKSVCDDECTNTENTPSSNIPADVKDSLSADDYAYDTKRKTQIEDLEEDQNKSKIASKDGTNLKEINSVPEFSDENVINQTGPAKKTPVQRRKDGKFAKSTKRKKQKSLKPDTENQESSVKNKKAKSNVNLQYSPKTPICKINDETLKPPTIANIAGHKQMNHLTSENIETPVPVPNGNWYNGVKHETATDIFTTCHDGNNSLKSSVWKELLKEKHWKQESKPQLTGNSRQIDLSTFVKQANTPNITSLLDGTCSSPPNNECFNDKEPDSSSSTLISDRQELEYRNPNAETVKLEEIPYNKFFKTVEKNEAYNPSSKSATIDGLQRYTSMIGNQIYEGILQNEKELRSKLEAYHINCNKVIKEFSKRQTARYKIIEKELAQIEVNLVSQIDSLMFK

[3] = target: T3, Mde2 (yeast two-hybrid construct) (Schizosaccharomyces pombe) (UniProt P87309); test: as above
T3 sequence: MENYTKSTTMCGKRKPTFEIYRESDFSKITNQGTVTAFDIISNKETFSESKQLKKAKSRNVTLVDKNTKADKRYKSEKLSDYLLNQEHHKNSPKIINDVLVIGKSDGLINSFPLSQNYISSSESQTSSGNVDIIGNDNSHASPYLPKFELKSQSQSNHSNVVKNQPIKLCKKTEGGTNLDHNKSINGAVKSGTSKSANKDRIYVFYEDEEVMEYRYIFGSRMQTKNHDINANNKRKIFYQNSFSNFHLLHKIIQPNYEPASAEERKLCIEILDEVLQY

[4] = target: T4, Rec10-FLAG (Schizosaccharomyces pombe) (UniProt Q09823); test: co-IP; S. pombe cells harvested 4 h after meiotic induction; immunoprecipitation of the FLAG-tagged Rec10, blot for Hop1-HA; not cross-linked
T4 sequence: T2 sequence

[5] = target: T5, Rec10-P348G K349G (expressed in S. pombe) (Schizosaccharomyces pombe) (UniProt Q09823); test: as above
T5 sequence: T2 sequence with P348G, K349G

[6] = target: T6, Rec10-E309A (expressed in S. pombe) (Schizosaccharomyces pombe) (UniProt Q09823); test: as above
T6 sequence: T2 sequence with E309A

[7] = target: T7, Rec15ΔCT-FLAG (Schizosaccharomyces pombe) (UniProt Q09094); test: co-IP; cross-linked co-IP: S. pombe cells treated with 1% formaldehyde 4 h after meiotic induction; anti-FLAG IP after micrococcal nuclease treatment
T7 sequence: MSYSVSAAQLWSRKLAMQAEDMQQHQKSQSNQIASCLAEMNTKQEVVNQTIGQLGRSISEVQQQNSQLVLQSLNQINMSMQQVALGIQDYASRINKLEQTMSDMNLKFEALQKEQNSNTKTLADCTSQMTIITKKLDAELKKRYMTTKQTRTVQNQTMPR

[8] = target: T8, Rec15-FLAG (Schizosaccharomyces pombe) (UniProt Q09094); test: as above
T8 sequence: T1 sequence

[9] = target: T9, Rec10-E309A (yeast two-hybrid construct) (Schizosaccharomyces pombe) (UniProt Q09823); test: two-hybrid; S. cerevisiae AH109, pGADT7 and pGBKT7 plasmids; growth on SD without leucine, tryptophan, histidine and adenine, 5 days at 30°C
T9 sequence: T2 sequence with E309A

[10] = target: T10, Rec10-P348G K349G (yeast two-hybrid construct) (Schizosaccharomyces pombe) (UniProt Q09823); test: as above
T10 sequence: T2 sequence with P348G, K349G

B1: Hop1 full-length (yeast two-hybrid construct) (protein, UniProt Q9P7P2 1-528)
chain: MNSYKEEILQTKSDFTLKNLIFFAISTLCYKRALFNENCYKKVNFEIEHFKGADFDCQLKPTVVSLQAGVDKEADSFLEMMKTYIFSLVSMKVPFTVYLIISSQCKSILEDDAVEKEIFSFTINPGSEEKICCESFVSYQRSERFVIKLFLSGNVKTECKDEEKVVQIITKMERFQLSKGEATKAGVFLNTVETKDCMSWLNRGEFKDIVSFYESNNGIAISHCSHAFVPISTEKIMINKESSLFDSQEKIDSQLEKFLQPLKYDEIGSTQILDEQSVEKSLSQGKCEKMQNESRGLREIKNNNPCEEVKKSNWLKKNISGSDKVDKAEKKKALLNCECGDSTEDSEMFQCERCDGWVHCACYGFESDSDPRQPNQLLCYTCLLVDSESSLYDRMTMLVAYRRAIRCIWASEYQGFQKLAARLNCSYADAKRIEERLVNENIIYKEKKRKWIYFTNKSPEMVSYLREKYFTPSRWISHLNFQNYRQENQRVNMRSFLRPERMEVIERPKKVSKTSNTKETDTMKPLRI
binding [1]: binds
binding [2]: binds

B2: Rec15ΔCT (1-160; yeast two-hybrid construct) (domain or fragment, UniProt Q09094 1-160)
chain: T7 sequence
binding [3]: binds
binding [1]: binds

B3: Hop1-HA (protein, UniProt Q9P7P2 1-528)
chain: B1 chain
binding [4]: binds
binding [5]: binds
binding [6]: binds
binding [7]: binds weakly
binding [8]: binds

B4: Rec25 (yeast two-hybrid construct) (protein, UniProt Q9C115 1-150)
chain: MVKGSVTNTSSIVKQFEKSSIKHETETIAFAKQFINECIREFQEQKDNVVEEKNTDQNHQNQNQEGVIIEIYQELLQKVDLISSELRQNLSSLQLRFQEVERDTGHDLLNVLNSLSQEARLAQKVLEEDGSQQGSQLIQGLLTCFQSTGN
binding [9]: binds
binding [10]: binds
binding [2]: binds

B5: Hop1 N fragment (1-300) (domain or fragment, UniProt Q9P7P2 1-300)
chain: MNSYKEEILQTKSDFTLKNLIFFAISTLCYKRALFNENCYKKVNFEIEHFKGADFDCQLKPTVVSLQAGVDKEADSFLEMMKTYIFSLVSMKVPFTVYLIISSQCKSILEDDAVEKEIFSFTINPGSEEKICCESFVSYQRSERFVIKLFLSGNVKTECKDEEKVVQIITKMERFQLSKGEATKAGVFLNTVETKDCMSWLNRGEFKDIVSFYESNNGIAISHCSHAFVPISTEKIMINKESSLFDSQEKIDSQLEKFLQPLKYDEIGSTQILDEQSVEKSLSQGKCEKMQNESRGLREI
binding [2]: binds

B6: Hop1 C fragment (301-527) (domain or fragment, UniProt Q9P7P2 301-527)
chain: KNNNPCEEVKKSNWLKKNISGSDKVDKAEKKKALLNCECGDSTEDSEMFQCERCDGWVHCACYGFESDSDPRQPNQLLCYTCLLVDSESSLYDRMTMLVAYRRAIRCIWASEYQGFQKLAARLNCSYADAKRIEERLVNENIIYKEKKRKWIYFTNKSPEMVSYLREKYFTPSRWISHLNFQNYRQENQRVNMRSFLRPERMEVIERPKKVSKTSNTKETDTMKPLR
binding [1]: binds
